Test results as given in publication PMC8582450.
Results are given in words; binding and its absence hold for the method and conditions named. In cells and extracts the contact can be indirect. Some results given as binding are weak or reduced against the parent protein; the word gives no strength. Sequences can lack the tags named with a protein.

Sequences of proteins named here, by UniProt entry; tags and fusion partners are left off.
UniProt P12004: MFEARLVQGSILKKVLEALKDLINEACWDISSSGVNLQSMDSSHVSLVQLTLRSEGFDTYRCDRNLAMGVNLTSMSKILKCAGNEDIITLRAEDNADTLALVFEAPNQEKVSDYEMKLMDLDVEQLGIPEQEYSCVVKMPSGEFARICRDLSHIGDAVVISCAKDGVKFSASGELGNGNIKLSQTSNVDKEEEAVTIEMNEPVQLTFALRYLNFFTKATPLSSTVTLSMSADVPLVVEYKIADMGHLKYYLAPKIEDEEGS
UniProt P46940: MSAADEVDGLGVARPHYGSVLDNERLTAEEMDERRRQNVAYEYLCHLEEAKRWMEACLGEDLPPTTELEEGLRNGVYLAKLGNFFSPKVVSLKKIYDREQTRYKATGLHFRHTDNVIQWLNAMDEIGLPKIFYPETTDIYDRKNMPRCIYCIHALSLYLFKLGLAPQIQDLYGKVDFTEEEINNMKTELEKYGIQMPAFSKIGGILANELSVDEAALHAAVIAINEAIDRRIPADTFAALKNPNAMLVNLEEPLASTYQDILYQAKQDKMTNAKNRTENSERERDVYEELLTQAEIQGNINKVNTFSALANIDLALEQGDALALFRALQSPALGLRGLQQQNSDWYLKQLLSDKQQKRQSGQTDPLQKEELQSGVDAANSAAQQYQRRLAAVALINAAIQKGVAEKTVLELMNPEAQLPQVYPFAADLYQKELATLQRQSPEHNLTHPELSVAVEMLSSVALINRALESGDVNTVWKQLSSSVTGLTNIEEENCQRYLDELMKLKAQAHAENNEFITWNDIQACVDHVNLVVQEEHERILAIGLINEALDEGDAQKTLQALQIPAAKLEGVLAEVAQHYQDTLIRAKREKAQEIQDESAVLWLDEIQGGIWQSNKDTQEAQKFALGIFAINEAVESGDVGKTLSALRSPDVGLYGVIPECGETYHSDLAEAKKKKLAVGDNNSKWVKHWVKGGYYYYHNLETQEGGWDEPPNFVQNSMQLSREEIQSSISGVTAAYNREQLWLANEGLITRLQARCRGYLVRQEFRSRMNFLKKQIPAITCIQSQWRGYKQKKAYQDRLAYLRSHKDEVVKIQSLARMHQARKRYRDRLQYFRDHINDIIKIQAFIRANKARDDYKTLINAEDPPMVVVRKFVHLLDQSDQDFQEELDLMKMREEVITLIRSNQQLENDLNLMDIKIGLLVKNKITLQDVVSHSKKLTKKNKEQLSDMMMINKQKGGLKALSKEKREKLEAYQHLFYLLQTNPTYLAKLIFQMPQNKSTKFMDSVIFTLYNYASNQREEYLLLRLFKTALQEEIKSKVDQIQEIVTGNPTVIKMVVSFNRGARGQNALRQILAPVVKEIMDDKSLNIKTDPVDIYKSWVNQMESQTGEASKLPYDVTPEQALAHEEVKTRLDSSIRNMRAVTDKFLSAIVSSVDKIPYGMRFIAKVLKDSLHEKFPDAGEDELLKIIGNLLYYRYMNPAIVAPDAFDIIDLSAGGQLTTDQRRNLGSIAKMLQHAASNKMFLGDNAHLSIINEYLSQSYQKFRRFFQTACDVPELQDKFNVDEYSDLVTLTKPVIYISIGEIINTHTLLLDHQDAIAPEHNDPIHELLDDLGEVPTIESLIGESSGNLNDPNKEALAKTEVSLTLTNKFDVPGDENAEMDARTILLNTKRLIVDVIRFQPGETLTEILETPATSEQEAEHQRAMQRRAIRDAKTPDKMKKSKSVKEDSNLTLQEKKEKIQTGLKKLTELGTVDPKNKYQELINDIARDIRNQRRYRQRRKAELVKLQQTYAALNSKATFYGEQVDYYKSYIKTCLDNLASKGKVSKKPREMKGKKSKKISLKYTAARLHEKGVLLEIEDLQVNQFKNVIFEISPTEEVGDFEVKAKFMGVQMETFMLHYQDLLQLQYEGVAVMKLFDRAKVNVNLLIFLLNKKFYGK

How the values were obtained:
[1] = molecular target: T1, HA-NIS (full-length sodium–iodide symporter with a triple HA tag in the fourth extracellular loop) (human) (UniProt Q92911); assay: co-IP; WC-IP: whole cell lysate of HA-NIS-TPC1 cells (1% NP40, 150 mM NaCl, Tris pH 7.5) with rabbit anti-HA overnight at 4 °C; protein G Dynabeads; washes with 300 mM NaCl; Western blot; non-specific IgG as control
T1 sequence: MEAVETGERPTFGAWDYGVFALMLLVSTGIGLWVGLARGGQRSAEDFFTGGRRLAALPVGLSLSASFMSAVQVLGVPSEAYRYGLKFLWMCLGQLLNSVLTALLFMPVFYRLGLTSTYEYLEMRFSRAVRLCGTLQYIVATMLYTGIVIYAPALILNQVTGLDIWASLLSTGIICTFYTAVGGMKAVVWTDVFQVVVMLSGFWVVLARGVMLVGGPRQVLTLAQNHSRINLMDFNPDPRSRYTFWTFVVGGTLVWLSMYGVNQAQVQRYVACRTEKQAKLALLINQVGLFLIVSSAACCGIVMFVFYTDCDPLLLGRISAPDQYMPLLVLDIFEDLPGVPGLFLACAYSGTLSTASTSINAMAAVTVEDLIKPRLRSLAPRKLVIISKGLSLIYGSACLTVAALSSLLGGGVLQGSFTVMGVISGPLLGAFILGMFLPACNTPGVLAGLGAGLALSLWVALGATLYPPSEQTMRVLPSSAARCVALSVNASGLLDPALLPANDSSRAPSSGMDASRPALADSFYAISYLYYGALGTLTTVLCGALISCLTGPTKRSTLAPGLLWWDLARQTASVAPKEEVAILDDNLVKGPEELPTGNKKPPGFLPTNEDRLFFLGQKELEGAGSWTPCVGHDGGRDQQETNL

[2] = molecular target: T1, HA-NIS (full-length sodium–iodide symporter with a triple HA tag in the fourth extracellular loop) (human); assay: co-IP; PM-IP: intact HA-NIS-TPC1 cells on ice labelled with rabbit anti-HA (4 µg/mL, 2 h, 4 °C), washed, lysed in 1% NP40, 150 mM NaCl, Tris pH 7.5; protein G Dynabeads; washes with 300 mM NaCl; Western blot; non-specific IgG as control

binding [1] | binding [2] | Substance
no binding | no binding | PCNA (proliferating cell nuclear antigen) (from UniProt P12004 1-261)
binds | binds | IQGAP1 (RAS GTPase-activating-like protein IQGAP1) (from UniProt P46940 1-1657)
